Screening data

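A 16-hour SH-SY5Y cell-line test in which apoptosis is tracked through a luminescent readout of caspase 3/7 activity.
Compounds were titrated from about 0.59 nM up to 92 µM.
The value is the fitted AC50 potency for caspase activation, and a lower number indicates a more potent compound.
Calls come from curve class, fit quality and efficacy: active needs a full well-fit curve or a partial high-efficacy one, a flat curve is inactive, and everything else is inconclusive.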

Values are in µM.
Every entry below has the call inconclusive.
These entries are mostly ones the record files as inconclusive; other results of the assay are not listed here.
A potency from a partial, single-point or poor curve is only a rough figure.

SMILES	fitted potency (µM)	curve as filed
N=C1N=C(N)c2cc3ccccc3cc21	31.62	rising, single point
CC(C)(C)NC(=O)[C@@H]1C[C@@H]2CCCC[C@@H]2CN1C[C@@H](O)[C@H](Cc1ccccc1)NC(=O)[C@H](CC(N)=O)NC(=O)c1ccc2ccccc2n1	50.12	rising, partial curve
O=c1c(-c2ccc(O)cc2)coc2cc(O)cc(O)c12	50.12	rising, partial curve
CC1=C(/C=C/C(C)=C/C=C/C(C)=C/C(=O)Nc2ccc(O)cc2)C(C)(C)CCC1	25.12	rising, partial curve
O=[N+]([O-])/C=C/c1ccccc1	12.59	rising, partial curve
O=S1OCC2C(CO1)C1(Cl)C(Cl)=C(Cl)C2(Cl)C1(Cl)Cl (stereo not shown)	79.43	rising, single point
CN(C)c1ccc(C(=C2C=CC(=[N+](C)C)C=C2)c2ccccc2)cc1	0.1259	rising, partial curve
CCCCCCCC[N+](CCCCCCCC)(CCCCCCCC)CCCCCCCC	12.59	rising, partial curve
COc1cccc2c1C(=O)c1c(O)c3c(c(O)c1C2=O)C[C@@](O)(C(C)=O)C[C@@H]3O[C@H]1C[C@H](N)[C@H](O)[C@H](C)O1	0.003162	rising, full curve, poor fit
[CH3][Hg][Cl]	1.585	rising, partial curve
O=C1C2(Cl)C3(Cl)C4(Cl)C(Cl)(Cl)C5(Cl)C3(Cl)C1(Cl)C5(Cl)C24Cl (stereo not shown)	79.43	rising, single point
COC(=O)C1=C(C)NC(C)=C(C(=O)OC)C1c1ccccc1[N+](=O)[O-]	31.62	rising, single point
C=CC(=O)OCCOCCOC(=O)C=C	12.59	rising, partial curve

For reference, 2 entries once more:

| SMILES | fitted potency (µM) | curve as filed |
|---|---|---|
| `C=CC(=O)OCCOCCOC(=O)C=C` | 12.59 | rising, partial curve |
| `CN(C)c1ccc(C(=C2C=CC(=[N+](C)C)C=C2)c2ccccc2)cc1` | 0.1259 | rising, partial curve |

Data taken from PubChem BioAssay AID657, deposited by NCATS (2007).